Experimental data: the supplement of paper PMC10849652
The list shows a part of the results.

The chains behind the UniProt entries cited, without tags or fusion partners. Where a name states a change or a piece, a line headed by the entry shows the natural chain unless it says otherwise.
UniProt P30405: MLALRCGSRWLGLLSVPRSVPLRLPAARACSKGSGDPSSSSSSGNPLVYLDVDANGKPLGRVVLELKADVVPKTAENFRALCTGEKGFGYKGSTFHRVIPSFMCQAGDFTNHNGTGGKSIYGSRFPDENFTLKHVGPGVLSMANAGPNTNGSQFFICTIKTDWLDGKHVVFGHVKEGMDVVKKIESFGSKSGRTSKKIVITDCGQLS
UniProt P30041: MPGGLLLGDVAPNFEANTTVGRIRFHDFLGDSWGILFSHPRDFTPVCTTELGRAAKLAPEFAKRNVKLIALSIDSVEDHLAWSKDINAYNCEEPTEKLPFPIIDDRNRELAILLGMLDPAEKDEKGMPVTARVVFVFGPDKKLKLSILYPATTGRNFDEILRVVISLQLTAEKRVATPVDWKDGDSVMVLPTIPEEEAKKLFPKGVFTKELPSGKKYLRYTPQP
UniProt Q13131: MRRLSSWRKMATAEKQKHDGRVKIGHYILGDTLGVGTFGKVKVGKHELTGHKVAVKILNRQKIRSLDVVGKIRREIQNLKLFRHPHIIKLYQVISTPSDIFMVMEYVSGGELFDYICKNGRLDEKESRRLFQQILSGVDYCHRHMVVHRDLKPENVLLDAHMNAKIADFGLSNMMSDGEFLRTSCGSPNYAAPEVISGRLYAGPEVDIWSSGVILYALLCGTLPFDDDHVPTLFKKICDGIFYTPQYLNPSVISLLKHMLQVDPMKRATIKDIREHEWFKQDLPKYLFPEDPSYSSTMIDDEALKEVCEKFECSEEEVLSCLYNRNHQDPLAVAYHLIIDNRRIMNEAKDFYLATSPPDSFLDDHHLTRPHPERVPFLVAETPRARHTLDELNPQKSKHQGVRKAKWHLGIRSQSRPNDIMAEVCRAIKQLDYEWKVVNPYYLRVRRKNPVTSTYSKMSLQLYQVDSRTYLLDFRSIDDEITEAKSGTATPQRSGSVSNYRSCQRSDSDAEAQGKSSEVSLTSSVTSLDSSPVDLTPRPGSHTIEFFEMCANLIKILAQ
UniProt Q9HCU5: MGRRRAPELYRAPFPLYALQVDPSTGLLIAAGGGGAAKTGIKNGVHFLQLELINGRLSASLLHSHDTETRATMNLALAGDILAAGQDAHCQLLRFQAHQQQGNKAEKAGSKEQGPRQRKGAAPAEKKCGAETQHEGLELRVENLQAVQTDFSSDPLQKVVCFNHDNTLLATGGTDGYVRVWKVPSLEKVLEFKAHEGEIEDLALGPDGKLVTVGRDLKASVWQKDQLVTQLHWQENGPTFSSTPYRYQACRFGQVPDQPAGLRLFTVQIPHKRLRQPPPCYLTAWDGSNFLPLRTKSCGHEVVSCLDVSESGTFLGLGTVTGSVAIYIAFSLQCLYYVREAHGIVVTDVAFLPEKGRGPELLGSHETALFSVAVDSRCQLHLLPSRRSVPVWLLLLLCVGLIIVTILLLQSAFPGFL
UniProt P35813: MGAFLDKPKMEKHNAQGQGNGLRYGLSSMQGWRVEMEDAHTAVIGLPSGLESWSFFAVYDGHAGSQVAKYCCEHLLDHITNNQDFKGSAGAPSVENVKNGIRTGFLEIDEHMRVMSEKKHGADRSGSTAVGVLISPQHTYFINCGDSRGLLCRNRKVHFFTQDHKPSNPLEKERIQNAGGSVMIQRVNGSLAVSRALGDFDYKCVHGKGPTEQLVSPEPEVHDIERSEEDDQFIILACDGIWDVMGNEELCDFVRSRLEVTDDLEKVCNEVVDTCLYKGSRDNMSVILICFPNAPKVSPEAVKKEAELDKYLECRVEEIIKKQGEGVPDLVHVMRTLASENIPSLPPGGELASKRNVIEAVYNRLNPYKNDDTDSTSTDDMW
UniProt P14314: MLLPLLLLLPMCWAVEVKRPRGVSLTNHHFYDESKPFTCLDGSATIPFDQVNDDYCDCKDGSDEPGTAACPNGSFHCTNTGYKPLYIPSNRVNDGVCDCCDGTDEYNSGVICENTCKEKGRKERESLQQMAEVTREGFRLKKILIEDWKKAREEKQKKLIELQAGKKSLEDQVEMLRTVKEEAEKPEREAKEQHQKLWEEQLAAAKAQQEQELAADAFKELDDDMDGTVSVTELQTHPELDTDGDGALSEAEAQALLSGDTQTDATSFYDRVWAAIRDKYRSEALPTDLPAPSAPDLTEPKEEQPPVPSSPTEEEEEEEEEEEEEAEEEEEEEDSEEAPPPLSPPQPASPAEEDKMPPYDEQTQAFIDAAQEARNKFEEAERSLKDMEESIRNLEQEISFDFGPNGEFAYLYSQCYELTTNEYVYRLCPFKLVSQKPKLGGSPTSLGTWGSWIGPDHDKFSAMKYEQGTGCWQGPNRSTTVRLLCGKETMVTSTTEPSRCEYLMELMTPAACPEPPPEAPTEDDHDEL
UniProt P31321, whole entry, looked up: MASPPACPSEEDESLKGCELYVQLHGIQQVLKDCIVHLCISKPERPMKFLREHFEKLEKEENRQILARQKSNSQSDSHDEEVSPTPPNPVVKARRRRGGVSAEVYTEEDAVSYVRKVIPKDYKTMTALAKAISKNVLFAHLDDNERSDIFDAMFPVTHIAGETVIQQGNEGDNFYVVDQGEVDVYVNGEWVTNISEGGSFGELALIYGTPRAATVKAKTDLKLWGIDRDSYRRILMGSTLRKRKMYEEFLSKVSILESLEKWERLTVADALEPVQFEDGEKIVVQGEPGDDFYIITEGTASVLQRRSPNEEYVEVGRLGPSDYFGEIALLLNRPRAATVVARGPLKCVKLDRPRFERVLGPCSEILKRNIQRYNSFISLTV
UniProt Q9UMS4: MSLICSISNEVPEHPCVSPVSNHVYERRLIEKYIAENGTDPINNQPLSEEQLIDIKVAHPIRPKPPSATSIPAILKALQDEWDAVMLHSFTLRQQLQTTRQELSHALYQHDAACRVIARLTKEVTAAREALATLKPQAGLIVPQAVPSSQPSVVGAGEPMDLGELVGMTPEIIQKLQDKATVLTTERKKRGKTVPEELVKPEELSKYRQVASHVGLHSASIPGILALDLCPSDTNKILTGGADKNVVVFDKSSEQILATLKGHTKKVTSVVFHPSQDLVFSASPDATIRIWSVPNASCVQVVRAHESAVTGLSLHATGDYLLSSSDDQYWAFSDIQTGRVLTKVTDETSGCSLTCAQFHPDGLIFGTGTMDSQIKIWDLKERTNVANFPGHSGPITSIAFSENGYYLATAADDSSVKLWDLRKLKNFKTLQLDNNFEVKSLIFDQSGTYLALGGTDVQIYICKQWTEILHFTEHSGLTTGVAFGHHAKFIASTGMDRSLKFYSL
UniProt Q8TF05: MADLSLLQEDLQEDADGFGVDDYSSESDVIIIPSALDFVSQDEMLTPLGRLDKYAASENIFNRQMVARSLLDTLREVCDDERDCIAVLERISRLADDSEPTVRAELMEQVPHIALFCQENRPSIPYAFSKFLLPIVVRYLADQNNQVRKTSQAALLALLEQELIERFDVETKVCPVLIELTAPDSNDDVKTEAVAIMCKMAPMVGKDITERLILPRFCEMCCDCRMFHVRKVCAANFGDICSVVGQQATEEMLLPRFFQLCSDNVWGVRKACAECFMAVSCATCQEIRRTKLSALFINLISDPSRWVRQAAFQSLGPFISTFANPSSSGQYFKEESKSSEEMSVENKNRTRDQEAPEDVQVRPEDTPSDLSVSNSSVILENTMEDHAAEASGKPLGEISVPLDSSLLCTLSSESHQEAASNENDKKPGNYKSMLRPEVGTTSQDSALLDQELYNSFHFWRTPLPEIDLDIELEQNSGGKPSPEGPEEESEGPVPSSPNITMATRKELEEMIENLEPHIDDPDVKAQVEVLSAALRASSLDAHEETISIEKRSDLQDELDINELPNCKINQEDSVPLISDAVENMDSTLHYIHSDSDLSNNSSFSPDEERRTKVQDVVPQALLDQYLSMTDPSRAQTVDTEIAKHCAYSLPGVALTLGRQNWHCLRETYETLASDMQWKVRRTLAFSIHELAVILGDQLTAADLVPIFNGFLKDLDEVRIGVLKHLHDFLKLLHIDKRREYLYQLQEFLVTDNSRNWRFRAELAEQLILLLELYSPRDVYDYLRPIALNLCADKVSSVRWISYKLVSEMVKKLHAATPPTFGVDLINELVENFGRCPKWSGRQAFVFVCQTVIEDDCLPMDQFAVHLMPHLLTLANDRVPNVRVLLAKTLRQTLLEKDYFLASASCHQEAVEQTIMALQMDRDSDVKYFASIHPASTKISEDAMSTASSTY
UniProt Q15172: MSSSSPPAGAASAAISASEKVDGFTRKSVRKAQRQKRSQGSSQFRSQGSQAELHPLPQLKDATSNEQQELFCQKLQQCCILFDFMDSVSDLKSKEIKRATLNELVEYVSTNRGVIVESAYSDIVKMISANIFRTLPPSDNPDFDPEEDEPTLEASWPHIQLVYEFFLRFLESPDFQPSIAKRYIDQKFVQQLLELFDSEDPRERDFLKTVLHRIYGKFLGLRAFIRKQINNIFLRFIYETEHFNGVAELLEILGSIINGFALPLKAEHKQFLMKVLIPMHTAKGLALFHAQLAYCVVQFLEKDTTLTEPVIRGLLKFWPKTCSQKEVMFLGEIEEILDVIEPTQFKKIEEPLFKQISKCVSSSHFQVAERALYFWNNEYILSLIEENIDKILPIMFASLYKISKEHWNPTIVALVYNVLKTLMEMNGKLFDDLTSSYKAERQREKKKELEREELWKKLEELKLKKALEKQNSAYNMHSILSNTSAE
UniProt Q15435: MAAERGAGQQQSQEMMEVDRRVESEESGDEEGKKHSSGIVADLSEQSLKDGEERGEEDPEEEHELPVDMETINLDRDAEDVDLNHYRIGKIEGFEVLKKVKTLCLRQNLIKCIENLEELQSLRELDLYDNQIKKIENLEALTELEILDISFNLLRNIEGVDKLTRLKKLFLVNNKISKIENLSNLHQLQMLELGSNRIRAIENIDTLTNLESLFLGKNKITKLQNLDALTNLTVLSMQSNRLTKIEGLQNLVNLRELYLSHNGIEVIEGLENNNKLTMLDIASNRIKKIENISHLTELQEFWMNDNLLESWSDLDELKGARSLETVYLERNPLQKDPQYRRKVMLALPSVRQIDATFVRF
UniProt P50897: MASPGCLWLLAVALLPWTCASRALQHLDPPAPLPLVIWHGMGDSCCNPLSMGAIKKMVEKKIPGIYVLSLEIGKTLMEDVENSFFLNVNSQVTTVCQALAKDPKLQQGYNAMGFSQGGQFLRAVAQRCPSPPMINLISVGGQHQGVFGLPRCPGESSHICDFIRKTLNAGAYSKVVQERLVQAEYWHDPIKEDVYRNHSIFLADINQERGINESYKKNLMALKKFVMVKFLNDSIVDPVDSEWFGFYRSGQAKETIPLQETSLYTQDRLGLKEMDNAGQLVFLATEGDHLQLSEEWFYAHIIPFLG
UniProt Q99873, whole entry, looked up: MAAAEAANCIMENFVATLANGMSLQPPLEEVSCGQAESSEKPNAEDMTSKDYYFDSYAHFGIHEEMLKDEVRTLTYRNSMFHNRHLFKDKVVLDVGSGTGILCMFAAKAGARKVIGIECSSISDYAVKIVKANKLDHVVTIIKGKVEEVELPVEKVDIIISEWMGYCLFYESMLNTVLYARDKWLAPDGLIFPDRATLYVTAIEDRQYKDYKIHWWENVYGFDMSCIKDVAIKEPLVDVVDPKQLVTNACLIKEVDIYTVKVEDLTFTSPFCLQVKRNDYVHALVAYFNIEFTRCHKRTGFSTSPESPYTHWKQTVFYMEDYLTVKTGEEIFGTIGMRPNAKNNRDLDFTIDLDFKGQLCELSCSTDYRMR
UniProt Q9UGJ0: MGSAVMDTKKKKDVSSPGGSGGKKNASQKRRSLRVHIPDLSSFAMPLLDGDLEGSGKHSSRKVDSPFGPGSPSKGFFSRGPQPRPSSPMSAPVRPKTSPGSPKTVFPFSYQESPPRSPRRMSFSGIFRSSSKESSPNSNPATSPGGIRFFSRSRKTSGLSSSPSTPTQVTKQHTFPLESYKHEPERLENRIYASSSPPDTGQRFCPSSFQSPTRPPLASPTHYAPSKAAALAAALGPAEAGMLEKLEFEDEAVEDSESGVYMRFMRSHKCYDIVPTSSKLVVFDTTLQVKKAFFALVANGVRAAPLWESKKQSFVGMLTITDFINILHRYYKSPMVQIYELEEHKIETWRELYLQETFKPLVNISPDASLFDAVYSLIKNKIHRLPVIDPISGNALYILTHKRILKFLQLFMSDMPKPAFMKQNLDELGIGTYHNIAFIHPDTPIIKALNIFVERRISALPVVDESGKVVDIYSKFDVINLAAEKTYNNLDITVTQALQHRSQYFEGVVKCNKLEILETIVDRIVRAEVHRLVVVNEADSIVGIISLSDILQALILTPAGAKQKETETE
UniProt Q8NAV1: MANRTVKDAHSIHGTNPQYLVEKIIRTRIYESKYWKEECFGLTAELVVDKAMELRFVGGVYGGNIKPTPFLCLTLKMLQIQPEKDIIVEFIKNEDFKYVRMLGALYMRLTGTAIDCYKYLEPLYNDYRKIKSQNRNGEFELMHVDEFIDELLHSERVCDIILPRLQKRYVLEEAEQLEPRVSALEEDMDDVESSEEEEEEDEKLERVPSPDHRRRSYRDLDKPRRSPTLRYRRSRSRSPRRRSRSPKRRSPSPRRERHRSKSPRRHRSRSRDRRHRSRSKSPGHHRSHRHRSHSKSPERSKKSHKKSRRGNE

Legend:
Experiment in all cases: log2 fold change, soluble protein after heating vs DMSO (PISA); higher = thermal stabilisation; K562 lysate, 10 uM; active = over 0.2 and 3.5 SD of the protein, either way, in both replicates (recomputed)
[1] = compound: C#Cc1cccc(Nc2ncnc3cc(OCCOC)c(OCCOC)cc23)c1 [erlotinib]
Method in brief: (§1)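 A 30 min treatment with 10 μM compound was applied to crude K562 extract at 1 mg/mL protein in PBS pH 7.4 with 1 mM MgCl2. Heating for 3 min spanned 48°C-58°C, after which aliquots were pooled, adjusted to 0.5% NP-40 at 4°C and spun at 21,000xg for 90 min. TMTpro 16plex LC-MS/MS of the supernatant, with channel sums equalised, gave values recorded as log-two fold change in thermal stability against solvent controls, from duplicates.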

[2] = compound: C/C(=N\NC(=O)C1=CC(=CC=C1)S(=O)(=O)N2CCOCC2)/C3=C(C=CC(=C3)Cl)O
Method in brief: as §1

[3] = compound: C1=CC(=CC=C1C2=NC3=C(N2)C=C(C=C3)C(=O)N)OC4=CC=C(C=C4)Cl
Method in brief: as §1

[4] = compound: C1=CC2=C(C=CC(=C2)/C=C\3/C(=O)NC(=NCC4=CC=CS4)S3)N=C1
Method in brief: as §1

[5] = compound: C1=CC2=NC=CN=C2C=C1/C=C/3\C(=O)NC(=O)S3
Method in brief: as §1

[6] = compound: C1=CC=C(C=C1)C2=NC(=C(N2)C3=CC=NC=C3)C4=CC(=C(C=C4)Cl)O
Method in brief: as §1

[7] = compound: C1=CC=C2C(=C1)C3=NNC4=CC=CC(=C43)C2=O
Method in brief: as §1

[8] = compound: C1CCN(C1)C(=O)NC2=CC=CC(=C2)NC3=NC=C(C(=N3)NCCC4=CN=CN4)Br
Method in brief: as §1

[9] = compound: C1CN(CCC1(CC2=CC=C(C=C2)Cl)N)C3=NC=NC4=C3C=CN4
Method in brief: as §1

[10] = compound: C1COCCN1CCN2C3=CC=CC=C3N=C2NC(=O)C4=CC(=CC=C4)[N+](=O)[O-] [IRAK-1-4 Inhibitor I]
Method in brief: as §1

[11] = compound: C=CC(=O)N1CCC[C@@H](n2nc(-c3ccc(Oc4ccccc4)cc3)c3c(N)ncnc32)C1 [ibrutinib]
Method in brief: as §1

[12] = compound: CC(=O)c1cnc2ccc(-c3cc(Cl)c(O)c(Cl)c3)nc2c1N[C@H]1CC[C@H](CN(C)C)CC1
Method in brief: as §1

[13] = compound: CC(C)(C)Cn1c(N)nc2ccc(-c3[nH]c(C(C)(C)C)nc3-c3ccc(F)cc3)nc21 [ralimetinib]
Method in brief: as §1

[14] = compound: CC(C)(O)CC(=O)NCCn1ccc2ncnc(Nc3ccc(Oc4cccc(C(F)(F)F)c4)c(Cl)c3)c21
Method in brief: as §1

[15] = compound: CC(C)C1=C2N=C(C=C(N2N=C1)NCC3=CC=CC=C3)NCCCCCCN
Method in brief: as §1

[16] = compound: CC1=C(C(CC(=O)N1)C2=CC=C(C=C2)C(F)(F)F)C(=O)NC3=C(C=C4C(=C3)C=NN4)F
Method in brief: as §1

[17] = compound: CC1=C(C2=C(C=C1)C(=O)C3=CC=CC=C3N2CCCN)C
Method in brief: as §1

[18] = compound: CC1=C(C=C(C=C1)NC(=O)C2=CC(=CC=C2)C(C)(C)C#N)NC3=CC4=C(C=C3)N=CN(C4=O)C
Method in brief: as §1

[19] = compound: CC1=C(C=C(C=C1)NC(=O)C2=CC(=CC=C2)N(C)C)NC(=O)C3=CC=C(C=C3)O
Method in brief: as §1

[20] = compound: CC1=CC=C(C=C1)SC2=C3C=C(SC3=CN=C2)C(=O)N
Method in brief: as §1

Measured: log2 fold change

PPIF (UniProt P30405)
inactive: [1] -0.019 | [2] 0.029 | [3] 0.04 | [4] -0.028 | [5] -0.036 | [6] -0.031 | [7] -0.019 | [8] -0.02 | [9] 0.01 | [10] -0.004 | [11] 0.032 | [12] -0.03 | [13] 0.002 | [14] -0.029 | [15] 0.004 | [16] -0.033 | [17] 0.005 | [18] 0.016 | [19] -0.009 | [20] -0.017

PRDX6 (UniProt P30041)
inactive: [1] -0.035 | [2] 0.015 | [3] -0.001 | [4] -0.023 | [5] 0.014 | [6] -0.004 | [7] 0.01 | [8] 0.01 | [9] 0.004 | [10] -0.002 | [11] 0.025 | [12] 0.025 | [13] -0.015 | [14] -0.001 | [15] -0.009 | [16] -0.02 | [17] -0.006 | [18] 0 | [19] -0.006 | [20] 0.008

PRKAA1 isoform 2 (UniProt Q13131)
inactive: [1] -0.037 | [2] -0.052 | [3] -0.001 | [4] -0.004 | [5] -0.008 | [6] -0.03 | [7] 0.179 | [8] 0.248 | [9] 0.024 | [10] 0.073 | [11] 0.033 | [12] 0.021 | [13] 0.006 | [14] -0.004 | [15] -0.061 | [16] 0.006 | [17] 0.019 | [18] -0.018 | [19] 0.016 | [20] -0.034

PREB (UniProt Q9HCU5)
inactive: [1] 0.002 | [2] -0.034 | [3] 0.023 | [4] 0.036 | [5] 0.04 | [6] -0.004 | [7] -0.067 | [8] -0.026 | [9] 0.017 | [10] 0.003 | [11] -0.004 | [12] -0.005 | [13] 0.012 | [14] -0.013 | [15] -0.006 | [16] 0.033 | [17] -0.001 | [18] 0.051 | [19] 0.008 | [20] -0.016

Random excerpt: two entries already listed, in no set order.
PPIF (UniProt P30405)
inactive: [1] -0.019 | [2] 0.029 | [3] 0.04 | [4] -0.028 | [5] -0.036 | [6] -0.031 | [7] -0.019 | [8] -0.02 | [9] 0.01 | [10] -0.004 | [11] 0.032 | [12] -0.03 | [13] 0.002 | [14] -0.029 | [15] 0.004 | [16] -0.033 | [17] 0.005 | [18] 0.016 | [19] -0.009 | [20] -0.017

PREB (UniProt Q9HCU5)
inactive: [1] 0.002 | [2] -0.034 | [3] 0.023 | [4] 0.036 | [5] 0.04 | [6] -0.004 | [7] -0.067 | [8] -0.026 | [9] 0.017 | [10] 0.003 | [11] -0.004 | [12] -0.005 | [13] 0.012 | [14] -0.013 | [15] -0.006 | [16] 0.033 | [17] -0.001 | [18] 0.051 | [19] 0.008 | [20] -0.016

Next results:

PPM1A isoform 3 (UniProt P35813)
inactive: [1] -0.025 | [2] -0.881 | [3] 0.023 | [4] 0.006 | [5] 0.008 | [6] 0.037 | [7] -0.038 | [8] -0.023 | [9] -0.017 | [10] 0.001 | [11] -0.008 | [12] 0.008 | [13] -0.051 | [14] -0.034 | [15] -0.029 | [16] 0.003 | [17] -0.024 | [18] -0.02 | [19] 0.011 | [20] -0.028

PRKCSH isoform 2 (UniProt P14314)
inactive: [1] 0.038 | [2] -0.107 | [3] 0.084 | [4] 0.024 | [5] 0.001 | [6] -0.054 | [7] -0.011 | [8] -0.009 | [9] 0.015 | [10] 0.001 | [11] -0.125 | [12] 0.069 | [13] 0.012 | [14] -0.142 | [15] -0.004 | [16] 0.04 | [17] -0.017 | [18] 0.131 | [19] 0.132 | [20] -0.045

PRKAR1B (UniProt P31321)
inactive: [1] -0.013 | [2] 0.02 | [3] -0.06 | [4] 0.035 | [5] -0.105 | [6] 0.004 | [7] -0.001 | [8] 0.073 | [9] -0.142 | [10] -0.047 | [11] 0 | [12] 0.003 | [13] -0.029 | [14] 0.118 | [15] -0.015 | [16] -0.012 | [17] 0.095 | [18] -0.046 | [19] -0.023 | [20] 0.035

PRPF19 (UniProt Q9UMS4)
inactive: [1] -0.007 | [2] -0.025 | [3] 0 | [4] 0.027 | [5] 0.011 | [6] -0.027 | [7] -0.013 | [8] 0.041 | [9] -0.041 | [10] -0.032 | [11] -0.006 | [12] -0.003 | [13] 0.009 | [14] 0.013 | [15] 0.015 | [16] -0.014 | [17] 0.023 | [18] -0.004 | [19] -0.017 | [20] -0.008

PPP4R1 (UniProt Q8TF05)
inactive: [1] 0.009 | [2] -0.063 | [3] -0.018 | [4] 0.055 | [5] 0.041 | [6] -0.016 | [7] -0.019 | [8] -0.005 | [9] 0.002 | [10] 0.006 | [11] 0.002 | [12] 0.005 | [13] 0.026 | [14] -0.02 | [15] -0.013 | [16] -0.021 | [17] 0.002 | [18] -0.003 | [19] -0.012 | [20] 0

PPP2R5A (UniProt Q15172)
inactive: [1] 0.037 | [2] 0.001 | [3] 0.005 | [4] 0.023 | [5] 0.016 | [6] -0.017 | [7] 0.009 | [8] 0 | [9] 0.061 | [10] 0.015 | [11] -0.004 | [12] 0.02 | [13] 0.022 | [14] -0.019 | [15] 0.012 | [16] 0.06 | [17] 0.033 | [18] -0.011 | [19] 0.015 | [20] 0.013

PPP1R7 (UniProt Q15435)
inactive: [1] -0.052 | [2] 0.011 | [3] -0.002 | [4] -0.008 | [5] -0.023 | [6] 0.002 | [7] 0 | [8] 0.016 | [9] -0.016 | [10] -0.004 | [11] 0.012 | [12] 0.02 | [13] 0.009 | [14] -0.008 | [15] 0.014 | [16] -0.032 | [17] 0.009 | [18] 0.017 | [19] 0.009 | [20] 0.013

PPT1 (UniProt P50897)
inactive: [1] 0.019 | [2] -0.076 | [3] 0.105 | [4] -0.009 | [5] 0.034 | [6] -0.042 | [7] -0.014 | [8] -0.015 | [9] 0.011 | [10] -0.011 | [11] -0.039 | [12] -0.009 | [13] 0 | [14] 0.024 | [15] 0.004 | [16] 0.017 | [17] -0.021 | [18] -0.001 | [19] -0.013 | [20] -0.01

PRMT1 (UniProt Q99873)
inactive: [1] 0.015 | [2] -0.002 | [3] 0.01 | [4] -0.008 | [5] 0.003 | [6] -0.004 | [7] -0.024 | [8] -0.017 | [9] 0.026 | [10] 0.006 | [11] -0.008 | [12] -0.018 | [13] -0.006 | [14] 0.01 | [15] 0 | [16] -0.027 | [17] -0.015 | [18] 0.056 | [19] -0.001 | [20] 0.01

PRKAG2 (UniProt Q9UGJ0)
inactive: [1] -0.048 | [2] -0.033 | [3] -0.018 | [4] -0.038 | [5] -0.003 | [6] -0.015 | [7] 0.148 | [8] 0.144 | [9] 0.028 | [10] 0.075 | [11] -0.007 | [12] 0.05 | [13] 0.044 | [14] 0.038 | [15] -0.013 | [16] 0.034 | [17] 0.053 | [18] -0.031 | [19] -0.035 | [20] -0.021

PRPF38A (UniProt Q8NAV1)
inactive: [1] -0.012 | [2] -0.016 | [3] 0.049 | [4] -0.025 | [5] 0.044 | [6] 0.05 | [7] 0.042 | [8] 0.005 | [9] -0.018 | [10] 0.057 | [11] 0 | [12] -0.001 | [13] 0.01 | [14] -0.011 | [15] 0.054 | [16] 0.027 | [17] -0.128 | [18] 0.094 | [19] -0.075 | [20] 0.018
